# At least one structure is not confirmed: it was looked up by name or label, or the drawing left a doubt.
# Tests used:
# Format in all cases: biochemical
# [1] = DPPH radical scavenging activity
# Description: In order to extract an effective ingredient having an anti-oxidant activity from Cercis chinensis, an experiment was performed following the procedure represented in a schematic diagram of FIG. 1. Particularly, 1 kg of leaves and stems of Cercis chinensis, dried in shadow, were grinded to powder using a pulverizer, which was extracted by ethanol (EtOH) at room temperature twice at intervals of two weeks. For the extraction, ethanol solutions were prepared by adding ethanol gradually, 10% at a time, from 0% to 100%. The prepared ethanol solutions were used for the extraction. […] But, it looses absorbance when being scavenged. Based on that point, an anti-oxidant activity can be measured using DPPH. […] Then, each solution was distributed into a 96 well plate by 10 μl each, into which 190 μl of DPPH(Sigma, St. Louis, Mo, USA) solution whose ethanol concentration was 2×10^−4 M/ml was added. The plate was just left at room temperature for 30 minutes. Finally, OD517 was measured at 517 nm. For a control, DMSO was added instead of the sample, and changes of optical density were investigated. […]
# In order to identify a fraction having an anti oxidant activity among hexane Fr, EtOAc Fr and BuOH Fr obtained above, a DPPH radical scavenging activity was measured using each extract of each fraction following the method used above. […]
# [2] = Hydroxyl radical scavenging activity (deoxyribose/TBA, method of Halliwell); settings: 10 μg of sample, total volume 1 ml
# Description: Hydroxyl radical (HO.) is generated by the reaction of a metal ion or a superoxide radical. Owing to its strong reactivity, hydroxyl radical causes oxidative damages to DNA, protein and lipid in vivo. Nitric oxide (NO.) is reacted with a superoxide radical to generate a peroxy nitrite (ONOO—), also having strong reactivity. […] Particularly, each compound was mixed with 10 μg of a sample dissolved in DMSO, phosphate buffer (20 mM, pH 7.4) 5.6 mM deoxyribose, 0.1 mM FeCl3, 1 mM H2O2 and 0.1 mM ascorbic acid, making total volume 1 ml, which was then reacted at 37° C. for 60 minutes. 250 μl of 20% TCA and 250 μl of 1% TBA solution (dissolved in 50 mM NaOH) were added to the reaction solution, followed by thermal reaction at 95° C. for 5 minutes. After completing the reaction, OD532 was measured. Hydroxyl radical scavenging activity was calculated by the below
# <Mathematical Formula 3>. BHA and α-tocopherol were used for a positive control. Hydroxyl Radical Scavenging Activity (%)=(Acontrol−Asample)/(Acontrol−Ablank)×100 <Mathematical Formula 3>
# Acontrol: Optical density of control group well (sample was not added),
# Asample: Optical density of experimental group well (sample was added),
# Ablank: Optical density of well not added with sample, TCA and TBA
# [3] = Nitric oxide scavenging activity; design: concentration or dose not given beside the values
# [4] = Superoxide radical scavenging activity (xanthine/xanthine oxidase, NBT); settings: Table 6
# Description: Superoxide radical (O^2−) itself has a little reactivity, but is easily changed into H2O2 that generates hydroxyl radical having strong reactivity or is reacted with nitric oxide (NO.) to generate peroxy nitrite (ONOO^−) having strong reactivity, too. Thus, it might be a reason for oxidation of SH-group, nitration of protein tyrosine, lipid peroxidation and DNA damage. […] Basically, measurement of superoxide radical scavenging activity was performed by investigating the activity of superoxide dismutase (SOD), an enzyme scavenging superoxide by dismutation of the same. In the present invention, an activity of a sample to inhibit superoxide production by the enzyme reaction of xanthine/xanthine oxidase and its another activity to inhibit reaction (NBT+20^2−→NBTH2+2O2) generating formazan by reduction of nitro blue tetrazolium (referred as ‘NBT’ hereinafter) were measured. Particularly, wells of a 96-well plate were supplemented with 50 μl of 4 mM xanthine (Sigma), 50 μl of […] NBT (Sigma), 50 μl of 50 mM phosphate buffer (pH 7.8, 1 mM EDTA) and 10 μl of each sample, into which 40 μl of xanthine oxidase was added to induce a reaction. After the reaction was completed, each reaction solution was collected as scheduled, and OD550 was measured with an ELISA reader. […] Superoxide Radical Scavenging Activity (%)=(Acontrol−Asample)/(Acontrol−Ablank)×100 <Mathematical Formula 4> […]
compound,measurement,setting,value
"C[C@@H]1O[C@@H](Oc2c(-c3ccc(O)c(O)c3)oc3cc(O)cc(O)c3c2=O)[C@H](O)[C@H](O)[C@H]1O [Chemical Formula 11, quercitrin]",DPPH radical scavenging activity (in words),[1],strong radical scavenging activity
same,DPPH radical scavenging activity IC50,[1]; Table 3,12.4 ± 0.6 µg/mL
same,Hydroxyl radical scavenging activity (%),[2],16.6%
same,Nitric oxide scavenging activity (%),[3],10.2 ± 1.0%
same,Superoxide radical scavenging activity IC50,[4],32.1 ± 2.0 µg/mL

# From patent publication US7763287B2, “Extract of Cercis chinensis having anti-oxidant activity and anti-aging activity, and cosmetical composition containing the extract for anti-oxidation, skin-aging protection and wrinkle improvement” (Hankook Pharm. Co., Inc., priority 2002, dated 2010)
